Binding data for 1 substance are collected here from publication PMC12116642.

Protein sequences, listed by entry. Tags and fused reporters are not part of them.
UniProt Q9UPY5: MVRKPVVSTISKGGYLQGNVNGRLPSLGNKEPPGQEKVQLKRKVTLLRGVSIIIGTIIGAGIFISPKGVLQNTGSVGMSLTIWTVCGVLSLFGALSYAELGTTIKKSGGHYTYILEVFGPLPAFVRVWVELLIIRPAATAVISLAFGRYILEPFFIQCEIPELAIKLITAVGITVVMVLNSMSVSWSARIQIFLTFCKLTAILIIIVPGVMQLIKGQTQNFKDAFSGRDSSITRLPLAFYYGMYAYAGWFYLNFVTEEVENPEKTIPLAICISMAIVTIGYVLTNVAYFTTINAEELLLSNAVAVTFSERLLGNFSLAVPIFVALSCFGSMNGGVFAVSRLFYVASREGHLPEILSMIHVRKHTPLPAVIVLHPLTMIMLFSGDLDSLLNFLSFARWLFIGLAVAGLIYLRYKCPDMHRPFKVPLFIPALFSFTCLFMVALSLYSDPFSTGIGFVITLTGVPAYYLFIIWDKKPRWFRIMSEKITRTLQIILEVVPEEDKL
UniProt Q14457: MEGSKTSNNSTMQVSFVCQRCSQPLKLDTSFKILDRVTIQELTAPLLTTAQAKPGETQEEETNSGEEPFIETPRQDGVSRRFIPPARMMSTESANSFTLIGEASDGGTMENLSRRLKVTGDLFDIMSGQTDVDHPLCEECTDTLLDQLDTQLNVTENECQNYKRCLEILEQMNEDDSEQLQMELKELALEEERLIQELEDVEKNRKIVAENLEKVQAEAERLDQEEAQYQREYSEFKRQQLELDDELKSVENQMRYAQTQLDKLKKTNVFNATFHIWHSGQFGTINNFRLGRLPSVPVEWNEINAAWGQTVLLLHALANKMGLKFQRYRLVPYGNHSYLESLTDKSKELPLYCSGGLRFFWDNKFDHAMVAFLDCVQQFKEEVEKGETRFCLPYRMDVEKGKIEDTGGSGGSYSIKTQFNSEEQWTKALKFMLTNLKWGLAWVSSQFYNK

These are yes or no findings as the source states them, for the method shown. Binding seen in cells or lysates may run through a third protein. Some entries that bind do so weakly or less than the wild type.

The target of the test is solute carrier family 7 member 11 (SLC7A11) (human (endogenous in HN6 and CAL27)) (UniProt Q9UPY5). In words: co-IP; total protein lysates of HN6 and CAL27 cells, control or treated with CAP (capsaicin); immunoprecipitation kit with specific antibodies, protein A/G magnetic beads, elution by boiling in SDS sample buffer, Western blot; the precipitating antibody is not named. For orientation: A western blot detects proteins with antibodies after separation by electrophoresis.

In the case of BECN1 (from UniProt Q14457 1-450), the binding entry was “binds”.
